The list shows a part of the results.
Experiments:
Test in all cases: log2 fold change, soluble protein after heating vs DMSO (PISA); higher = thermal stabilisation; K562 lysate, 10 uM; active = over 0.2 and 3.5 SD of the protein, either way, in both replicates (recomputed)
nilotinib = compound: Cc1cn(-c2cc(NC(=O)c3ccc(C)c(Nc4nccc(-c5cccnc5)n4)c3)cc(C(F)(F)F)c2)cn1 [nilotinib]
Procedure, shortened: (§1)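 Values give the log-two fold change in thermal stability against solvent controls, from duplicates. Crude K562 extract at 1 mg/mL protein, made by dounce homogenisation in PBS pH 7.4 with 1 mM MgCl2, was treated with 10 μM compound for 30 min. After 3 min heating across 48°C-58°C, aliquots were pooled, adjusted to 0.5% NP-40 at 4°C and centrifuged at 21,000xg for 90 min. The supernatant was measured by TMTpro 16plex LC-MS/MS with channel sums equalised.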

Chains of the proteins cited; added tags and fusions are not shown. Lines headed by an entry give the natural chain unless they say otherwise; changes in a name come on top.
UniProt Q9BSU3: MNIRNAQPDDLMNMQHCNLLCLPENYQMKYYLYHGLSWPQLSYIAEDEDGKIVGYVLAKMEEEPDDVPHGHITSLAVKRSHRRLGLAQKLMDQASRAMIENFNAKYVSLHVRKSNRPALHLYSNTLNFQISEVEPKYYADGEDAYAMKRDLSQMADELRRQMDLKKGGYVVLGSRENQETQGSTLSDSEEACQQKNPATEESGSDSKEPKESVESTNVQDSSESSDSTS
UniProt Q5VVJ2: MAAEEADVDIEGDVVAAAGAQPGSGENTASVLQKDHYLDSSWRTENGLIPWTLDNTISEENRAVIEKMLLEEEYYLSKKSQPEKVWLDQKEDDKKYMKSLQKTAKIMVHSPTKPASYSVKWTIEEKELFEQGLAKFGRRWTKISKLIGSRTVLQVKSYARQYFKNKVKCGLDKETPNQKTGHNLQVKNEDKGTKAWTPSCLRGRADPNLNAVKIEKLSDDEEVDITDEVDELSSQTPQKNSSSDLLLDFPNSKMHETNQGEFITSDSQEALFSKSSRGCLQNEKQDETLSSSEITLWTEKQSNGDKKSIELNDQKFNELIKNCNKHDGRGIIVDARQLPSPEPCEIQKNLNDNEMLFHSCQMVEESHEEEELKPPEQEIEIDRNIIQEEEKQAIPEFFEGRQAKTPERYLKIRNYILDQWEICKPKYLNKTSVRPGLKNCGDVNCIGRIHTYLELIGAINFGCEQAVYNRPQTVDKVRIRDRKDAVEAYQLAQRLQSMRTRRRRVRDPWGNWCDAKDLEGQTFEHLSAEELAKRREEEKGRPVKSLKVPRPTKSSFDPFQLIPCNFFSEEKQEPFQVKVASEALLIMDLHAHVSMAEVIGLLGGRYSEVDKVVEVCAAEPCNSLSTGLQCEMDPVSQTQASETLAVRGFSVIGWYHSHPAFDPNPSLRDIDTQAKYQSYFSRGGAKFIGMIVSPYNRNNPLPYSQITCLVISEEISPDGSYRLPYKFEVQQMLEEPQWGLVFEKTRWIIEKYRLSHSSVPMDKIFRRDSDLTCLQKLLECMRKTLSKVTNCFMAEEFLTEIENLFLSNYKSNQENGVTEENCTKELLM
UniProt Q96DR8: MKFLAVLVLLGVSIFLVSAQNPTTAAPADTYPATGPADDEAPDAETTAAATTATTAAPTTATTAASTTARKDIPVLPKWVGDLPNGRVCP
UniProt P35580, whole entry, looked up: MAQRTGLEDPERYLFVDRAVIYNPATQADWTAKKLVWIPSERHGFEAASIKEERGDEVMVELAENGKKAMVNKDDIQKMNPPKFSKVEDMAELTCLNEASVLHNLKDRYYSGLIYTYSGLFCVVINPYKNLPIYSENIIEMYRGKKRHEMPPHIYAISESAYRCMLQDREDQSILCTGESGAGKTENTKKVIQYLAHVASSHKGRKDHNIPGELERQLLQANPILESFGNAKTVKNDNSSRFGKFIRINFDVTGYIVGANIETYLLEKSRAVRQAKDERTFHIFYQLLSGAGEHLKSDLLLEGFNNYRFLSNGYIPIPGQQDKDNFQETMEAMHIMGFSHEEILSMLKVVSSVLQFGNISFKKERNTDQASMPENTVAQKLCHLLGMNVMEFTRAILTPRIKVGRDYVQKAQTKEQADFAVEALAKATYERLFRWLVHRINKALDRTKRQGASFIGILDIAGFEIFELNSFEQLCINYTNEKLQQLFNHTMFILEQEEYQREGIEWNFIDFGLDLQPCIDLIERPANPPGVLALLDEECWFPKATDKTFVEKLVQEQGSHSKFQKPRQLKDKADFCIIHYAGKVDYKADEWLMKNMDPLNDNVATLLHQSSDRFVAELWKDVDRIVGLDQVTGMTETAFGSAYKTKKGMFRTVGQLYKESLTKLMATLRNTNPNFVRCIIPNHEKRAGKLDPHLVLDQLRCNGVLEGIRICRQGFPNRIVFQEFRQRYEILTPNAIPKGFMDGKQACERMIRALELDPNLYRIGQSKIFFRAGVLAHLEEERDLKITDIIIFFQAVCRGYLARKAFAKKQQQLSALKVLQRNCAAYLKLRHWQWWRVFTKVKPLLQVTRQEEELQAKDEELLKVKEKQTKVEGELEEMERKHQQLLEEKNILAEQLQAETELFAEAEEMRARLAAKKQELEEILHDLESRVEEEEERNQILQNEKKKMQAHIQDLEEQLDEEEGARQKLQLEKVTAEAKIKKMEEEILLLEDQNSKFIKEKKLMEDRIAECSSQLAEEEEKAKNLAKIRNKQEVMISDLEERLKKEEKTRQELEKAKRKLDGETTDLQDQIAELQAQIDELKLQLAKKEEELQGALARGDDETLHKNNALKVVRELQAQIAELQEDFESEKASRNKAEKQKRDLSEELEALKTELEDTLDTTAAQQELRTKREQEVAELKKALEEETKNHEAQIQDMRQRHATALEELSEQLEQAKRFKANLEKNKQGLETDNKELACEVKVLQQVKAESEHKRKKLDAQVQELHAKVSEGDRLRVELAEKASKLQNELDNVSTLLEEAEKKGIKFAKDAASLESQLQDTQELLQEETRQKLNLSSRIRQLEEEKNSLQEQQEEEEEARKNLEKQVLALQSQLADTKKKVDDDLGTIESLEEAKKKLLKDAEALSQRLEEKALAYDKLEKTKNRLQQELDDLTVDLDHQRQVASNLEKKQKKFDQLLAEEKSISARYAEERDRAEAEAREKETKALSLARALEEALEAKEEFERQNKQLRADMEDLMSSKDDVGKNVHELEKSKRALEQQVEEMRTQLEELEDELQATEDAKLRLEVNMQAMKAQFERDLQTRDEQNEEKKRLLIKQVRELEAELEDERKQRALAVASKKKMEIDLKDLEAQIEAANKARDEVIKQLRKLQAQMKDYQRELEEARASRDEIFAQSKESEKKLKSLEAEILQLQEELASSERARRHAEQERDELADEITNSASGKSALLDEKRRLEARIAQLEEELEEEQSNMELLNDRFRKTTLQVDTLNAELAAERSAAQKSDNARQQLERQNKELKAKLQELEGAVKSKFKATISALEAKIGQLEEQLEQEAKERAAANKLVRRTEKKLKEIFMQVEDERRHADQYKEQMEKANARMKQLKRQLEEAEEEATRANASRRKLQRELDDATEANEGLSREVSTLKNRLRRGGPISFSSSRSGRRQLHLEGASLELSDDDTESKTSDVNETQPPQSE
UniProt Q15003, whole entry, looked up: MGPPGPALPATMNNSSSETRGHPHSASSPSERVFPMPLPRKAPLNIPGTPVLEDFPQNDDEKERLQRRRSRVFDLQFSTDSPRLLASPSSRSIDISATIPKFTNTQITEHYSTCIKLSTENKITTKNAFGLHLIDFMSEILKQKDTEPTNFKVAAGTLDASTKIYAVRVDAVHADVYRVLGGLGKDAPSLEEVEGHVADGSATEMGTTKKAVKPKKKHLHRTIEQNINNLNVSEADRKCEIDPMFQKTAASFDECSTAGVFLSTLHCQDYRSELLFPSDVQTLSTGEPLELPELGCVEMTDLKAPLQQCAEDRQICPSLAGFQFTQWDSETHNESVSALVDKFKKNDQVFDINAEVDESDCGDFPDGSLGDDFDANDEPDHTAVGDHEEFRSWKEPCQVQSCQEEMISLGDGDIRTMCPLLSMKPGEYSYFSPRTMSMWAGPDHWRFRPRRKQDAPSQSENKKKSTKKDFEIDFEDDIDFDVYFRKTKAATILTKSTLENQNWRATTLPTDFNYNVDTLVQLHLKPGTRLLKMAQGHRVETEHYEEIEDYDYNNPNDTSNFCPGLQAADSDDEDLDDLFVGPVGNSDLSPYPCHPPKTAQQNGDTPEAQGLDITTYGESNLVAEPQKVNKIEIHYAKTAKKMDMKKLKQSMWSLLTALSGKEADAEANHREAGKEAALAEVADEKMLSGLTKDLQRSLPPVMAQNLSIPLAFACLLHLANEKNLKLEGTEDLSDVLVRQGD
UniProt P43490: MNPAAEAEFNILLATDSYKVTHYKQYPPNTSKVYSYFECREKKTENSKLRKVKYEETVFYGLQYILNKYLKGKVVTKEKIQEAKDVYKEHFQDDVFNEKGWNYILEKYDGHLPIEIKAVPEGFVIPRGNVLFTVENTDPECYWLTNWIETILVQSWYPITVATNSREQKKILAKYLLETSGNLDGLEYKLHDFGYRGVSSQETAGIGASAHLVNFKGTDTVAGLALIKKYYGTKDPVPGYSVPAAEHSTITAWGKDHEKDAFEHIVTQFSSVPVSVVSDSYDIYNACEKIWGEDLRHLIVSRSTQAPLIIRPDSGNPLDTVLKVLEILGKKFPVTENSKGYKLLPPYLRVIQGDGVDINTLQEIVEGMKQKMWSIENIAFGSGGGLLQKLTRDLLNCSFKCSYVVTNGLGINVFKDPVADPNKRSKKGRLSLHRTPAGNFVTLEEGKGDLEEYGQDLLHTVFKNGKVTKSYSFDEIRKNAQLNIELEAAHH
UniProt Q9BRA0: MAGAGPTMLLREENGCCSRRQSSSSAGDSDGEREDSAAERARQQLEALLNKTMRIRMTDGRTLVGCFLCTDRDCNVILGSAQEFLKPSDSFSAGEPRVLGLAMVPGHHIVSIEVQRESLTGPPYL
UniProt O00159, whole entry, looked up: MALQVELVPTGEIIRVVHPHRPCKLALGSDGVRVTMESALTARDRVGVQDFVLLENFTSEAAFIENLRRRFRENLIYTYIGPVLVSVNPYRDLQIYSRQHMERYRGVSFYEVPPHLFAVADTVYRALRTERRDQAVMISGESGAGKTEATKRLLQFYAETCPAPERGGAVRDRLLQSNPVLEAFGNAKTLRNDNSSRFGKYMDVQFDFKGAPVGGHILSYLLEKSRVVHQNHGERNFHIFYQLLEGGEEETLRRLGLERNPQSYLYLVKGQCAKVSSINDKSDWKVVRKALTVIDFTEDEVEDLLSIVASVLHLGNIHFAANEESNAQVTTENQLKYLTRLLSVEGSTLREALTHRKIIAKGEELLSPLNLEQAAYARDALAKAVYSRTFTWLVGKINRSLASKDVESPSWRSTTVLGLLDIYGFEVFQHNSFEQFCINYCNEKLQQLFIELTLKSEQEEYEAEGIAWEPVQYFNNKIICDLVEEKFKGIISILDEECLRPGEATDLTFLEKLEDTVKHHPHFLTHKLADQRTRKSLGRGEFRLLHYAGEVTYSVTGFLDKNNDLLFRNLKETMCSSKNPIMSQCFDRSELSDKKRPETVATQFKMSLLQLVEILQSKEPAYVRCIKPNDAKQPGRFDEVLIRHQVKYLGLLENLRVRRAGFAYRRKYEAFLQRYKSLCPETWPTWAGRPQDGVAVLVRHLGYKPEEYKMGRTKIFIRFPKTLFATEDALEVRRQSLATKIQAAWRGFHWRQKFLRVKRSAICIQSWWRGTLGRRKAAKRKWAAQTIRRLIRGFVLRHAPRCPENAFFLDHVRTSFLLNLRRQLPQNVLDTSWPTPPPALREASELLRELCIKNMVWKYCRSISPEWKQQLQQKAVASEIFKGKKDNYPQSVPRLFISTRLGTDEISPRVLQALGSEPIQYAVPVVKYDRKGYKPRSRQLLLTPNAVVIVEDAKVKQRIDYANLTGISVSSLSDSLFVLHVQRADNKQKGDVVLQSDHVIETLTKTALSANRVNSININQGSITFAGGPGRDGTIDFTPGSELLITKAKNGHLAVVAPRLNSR
UniProt Q96S97: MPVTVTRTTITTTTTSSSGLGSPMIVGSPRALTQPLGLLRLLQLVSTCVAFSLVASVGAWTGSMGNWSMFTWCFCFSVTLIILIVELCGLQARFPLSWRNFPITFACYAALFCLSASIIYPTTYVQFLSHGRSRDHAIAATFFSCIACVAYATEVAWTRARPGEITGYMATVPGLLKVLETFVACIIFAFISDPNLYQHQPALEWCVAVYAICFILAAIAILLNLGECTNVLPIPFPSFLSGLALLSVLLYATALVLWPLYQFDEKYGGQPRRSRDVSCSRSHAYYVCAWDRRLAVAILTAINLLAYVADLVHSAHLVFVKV
UniProt P54920: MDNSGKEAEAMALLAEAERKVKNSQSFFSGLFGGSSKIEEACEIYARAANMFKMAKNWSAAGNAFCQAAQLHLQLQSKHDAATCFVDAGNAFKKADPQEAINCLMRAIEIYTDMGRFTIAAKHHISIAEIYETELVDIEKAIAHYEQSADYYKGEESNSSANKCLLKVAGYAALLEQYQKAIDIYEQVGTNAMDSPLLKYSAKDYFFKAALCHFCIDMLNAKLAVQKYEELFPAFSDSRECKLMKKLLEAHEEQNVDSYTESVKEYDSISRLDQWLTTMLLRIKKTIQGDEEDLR
UniProt Q8NCW5: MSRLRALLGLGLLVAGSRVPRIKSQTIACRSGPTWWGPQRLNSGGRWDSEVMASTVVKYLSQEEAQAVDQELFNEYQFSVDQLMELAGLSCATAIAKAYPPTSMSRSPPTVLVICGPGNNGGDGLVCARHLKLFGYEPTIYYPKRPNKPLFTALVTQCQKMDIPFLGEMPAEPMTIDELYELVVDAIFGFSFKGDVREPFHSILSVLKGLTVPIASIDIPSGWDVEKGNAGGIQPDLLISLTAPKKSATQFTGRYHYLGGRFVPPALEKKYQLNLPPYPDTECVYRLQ

[1] = compound: Cc1nc(Nc2n[nH]c3c2CN(C(=O)N[C@H](CN(C)C)c2ccccc2)C3(C)C)c2sccc2n1
Procedure, shortened: as §1

dasatinib = compound: Cc1nc(Nc2ncc(C(=O)Nc3c(C)cccc3Cl)s2)cc(N2CCN(CCO)CC2)n1 [dasatinib]
Procedure, shortened: as §1

[2] = compound: Cc1ncc(-c2ccnc(Nc3ccc(S(C)(=O)=O)cc3)n2)n1C(C)C
Procedure, shortened: as §1

[3] = compound: Cn1cc(-c2ccc3c(c2)CCN3C(=O)Cc2cccc(C(F)(F)F)c2)c2c(N)ncnc21
Procedure, shortened: as §1

quisinostat = compound: Cn1cc(CNCC2CCN(c3ncc(C(=O)NO)cn3)CC2)c2ccccc21 [quisinostat]
Procedure, shortened: as §1

tipifarnib = compound: Cn1cncc1[C@@](N)(c1ccc(Cl)cc1)c1ccc2c(c1)c(-c1cccc(Cl)c1)cc(=O)n2C [tipifarnib]
Procedure, shortened: as §1

[4] = compound: NC(=O)Nc1cc(-c2cccc(F)c2)sc1C(=O)N[C@H]1CCCNC1
Procedure, shortened: as §1

[5] = compound: NC(=O)c1cnc(N[C@@H]2CCCC[C@@H]2N)nc1Nc1cccc(-n2nccn2)c1
Procedure, shortened: as §1

[6] = compound: NC1(c2ccc(-c3nc4ccn5c(=O)[nH]nc5c4cc3-c3ccccc3)cc2)CCC1
Procedure, shortened: as §1

[7] = compound: NCC(=O)Nc1ccc(-n2nc(C(F)(F)F)cc2-c2ccc3c(ccc4ccccc43)c2)cc1
Procedure, shortened: as §1

vorinostat = compound: O=C(CCCCCCC(=O)Nc1ccccc1)NO [vorinostat]
Procedure, shortened: as §1

silmitasertib = compound: O=C(O)c1ccc2c(c1)nc(Nc1cccc(Cl)c1)c1ccncc12 [silmitasertib]
Procedure, shortened: as §1

[8] = compound: O=C1NC(=O)C(c2cnc3ccccn23)=C1c1cn2c3c(cc(F)cc13)CN(C(=O)N1CCCCC1)CC2
Procedure, shortened: as §1

entospletinib = compound: c1cn2cc(-c3ccc4cn[nH]c4c3)nc(Nc3ccc(N4CCOCC4)cc3)c2n1 [entospletinib]
Procedure, shortened: as §1

| Target | log2 fold change (nilotinib) | log2 fold change [1] | log2 fold change (dasatinib) | log2 fold change [2] | log2 fold change [3] | log2 fold change (quisinostat) | log2 fold change (tipifarnib) | log2 fold change [4] | log2 fold change [5] | log2 fold change [6] | log2 fold change [7] | log2 fold change (vorinostat) | log2 fold change (silmitasertib) | log2 fold change [8] | log2 fold change (entospletinib) |
| --- | --- | --- | --- | --- | --- | --- | --- | --- | --- | --- | --- | --- | --- | --- | --- |
| MVK (UniProt Q03426) | inactive: -0.026 | inactive: 0.021 | inactive: -0.039 | inactive: -0.014 | inactive: -0.02 | inactive: -0.005 | inactive: -0.035 | inactive: 0.017 | inactive: 0.021 | inactive: 0.024 | inactive: 0.006 | inactive: 0.13 | inactive: 0.008 | inactive: -0.016 | inactive: -0.037 |
| NCDN isoform 3 (UniProt Q9UBB6) | inactive: -0.018 | inactive: 0.024 | inactive: 0.009 | inactive: -0.004 | inactive: 0.042 | inactive: -0.011 | inactive: -0.037 | inactive: 0.021 | inactive: 0.002 | inactive: -0.002 | inactive: 0.02 | inactive: -0.161 | inactive: 0.039 | inactive: -0.004 | inactive: 0.026 |
| NAA11 (UniProt Q9BSU3) | inactive: 0.033 | inactive: -0.001 | inactive: 0.034 | inactive: 0.032 | inactive: -0.037 | inactive: 0.114 | inactive: 0.03 | inactive: -0.05 | inactive: 0.035 | inactive: 0.016 | inactive: 0.023 | inactive: -0.014 | inactive: -0.014 | inactive: 0.036 | inactive: -0.008 |
| N4BP2 (UniProt Q86UW6) | inactive: 0.026 | inactive: 0.036 | inactive: -0.024 | inactive: -0.043 | inactive: 0.061 | inactive: -0.001 | inactive: -0.061 | inactive: 0.037 | inactive: -0.018 | inactive: -0.048 | inactive: -0.075 | active: -0.369 | inactive: -0.004 | inactive: -0.001 | inactive: -0.029 |
| NAGK isoform 2 (UniProt Q9UJ70) | inactive: -0.004 | inactive: -0.031 | inactive: 0.035 | inactive: -0.03 | inactive: -0.013 | inactive: 0.054 | inactive: 0.001 | inactive: -0.029 | inactive: 0.005 | inactive: 0.016 | inactive: -0.037 | inactive: 0.186 | inactive: -0.016 | inactive: 0.012 | inactive: 0.013 |
| MYSM1 (UniProt Q5VVJ2) | inactive: -0.033 | inactive: 0.075 | inactive: -0.008 | inactive: -0.018 | inactive: -0.02 | inactive: -0.061 | inactive: 0.123 | inactive: 0.008 | inactive: 0 | inactive: 0.007 | inactive: 0.046 | inactive: -0.242 | inactive: 0.014 | inactive: -0.062 | inactive: -0.011 |
| MUCL1 (UniProt Q96DR8) | inactive: 0.652 | inactive: 0.161 | inactive: -0.332 | inactive: 0.274 | inactive: 1.15 | inactive: -0.156 | inactive: -0.29 | inactive: -0.239 | inactive: 0.095 | inactive: 0.04 | inactive: 0.244 | inactive: 0.599 | inactive: -0.233 | inactive: 0.283 | inactive: -0.165 |
| NAA40 (UniProt Q86UY6) | inactive: -0.011 | inactive: 0.006 | inactive: 0.01 | inactive: 0.013 | inactive: 0.085 | inactive: -0.038 | inactive: 0.049 | inactive: 0.094 | inactive: -0.008 | inactive: 0.003 | inactive: -0.087 | inactive: -0.067 | inactive: 0.082 | inactive: 0.045 | inactive: -0.052 |
| NCK1 (UniProt P16333) | inactive: -0.071 | inactive: 0.015 | inactive: -0.005 | inactive: -0.037 | inactive: -0.015 | inactive: -0.053 | inactive: 0.018 | inactive: 0.029 | inactive: 0.001 | inactive: 0.008 | inactive: 0.048 | active: -0.281 | inactive: 0.01 | inactive: -0.014 | inactive: 0.019 |
| MYL12B (UniProt O14950) | inactive: 0.053 | inactive: -0.005 | inactive: 0.046 | inactive: -0.015 | inactive: -0.037 | inactive: -0.018 | inactive: 0.006 | inactive: 0.016 | inactive: 0.014 | inactive: 0.012 | inactive: -0.017 | inactive: 0.122 | inactive: 0.014 | inactive: 0.049 | inactive: -0.022 |
| MYH10 isoform 3 (UniProt P35580) | inactive: -0.004 | inactive: -0.005 | inactive: 0.003 | inactive: 0.007 | inactive: -0.004 | inactive: 0.01 | inactive: -0.011 | inactive: -0.014 | inactive: 0.013 | inactive: -0.013 | inactive: 0.019 | inactive: 0.055 | inactive: 0.009 | inactive: 0.011 | inactive: 0.004 |
| NCAPH (UniProt Q15003) | inactive: -0.033 | inactive: 0 | inactive: -0.03 | inactive: -0.017 | inactive: -0.017 | inactive: 0.005 | inactive: 0.023 | inactive: 0.013 | inactive: 0.006 | inactive: -0.017 | inactive: -0.031 | active: -0.33 | inactive: 0.009 | inactive: -0.01 | inactive: -0.004 |
| NAMPT (UniProt P43490) | inactive: -0.026 | inactive: 0.028 | inactive: -0.019 | inactive: -0.028 | inactive: -0.018 | inactive: 0.013 | inactive: 0.066 | inactive: -0.024 | inactive: -0.015 | inactive: 0.075 | inactive: -0.023 | inactive: 0.097 | inactive: -0.012 | inactive: 0.014 | inactive: 0.012 |
| NAA38 isoform 2 (UniProt Q9BRA0) | inactive: -0.024 | inactive: 0.059 | inactive: -0.014 | inactive: -0.007 | inactive: 0.001 | inactive: 0.03 | inactive: -0.03 | inactive: 0.027 | inactive: 0.016 | inactive: -0.019 | inactive: -0.015 | inactive: -0.088 | inactive: 0.009 | inactive: 0.04 | inactive: -0.035 |
| MYO1C (UniProt O00159) | inactive: 0.019 | inactive: -0.013 | inactive: 0.112 | inactive: 0.005 | inactive: -0.038 | inactive: -0.052 | inactive: 0.019 | inactive: -0.082 | inactive: 0 | inactive: -0.087 | inactive: -0.017 | inactive: -0.171 | inactive: 0.015 | inactive: 0.11 | inactive: 0.033 |
| NCOA1 (UniProt Q15788) | inactive: -0.064 | inactive: 0.031 | inactive: -0.024 | inactive: 0.023 | inactive: 0.05 | inactive: -0.041 | inactive: -0.033 | inactive: 0.019 | inactive: 0.035 | inactive: -0.039 | inactive: 0.027 | inactive: -0.116 | inactive: -0.026 | inactive: 0.029 | inactive: -0.04 |
| MYADM (UniProt Q96S97) | inactive: -0.046 | inactive: 0.004 | inactive: 0.011 | inactive: 0.042 | inactive: -0.057 | inactive: -0.044 | inactive: 0.028 | inactive: 0.067 | inactive: -0.06 | inactive: 0.016 | inactive: 0.101 | inactive: -0.007 | inactive: -0.06 | inactive: 0.03 | inactive: -0.028 |
| NCAPD3 (UniProt P42695) | inactive: 0.005 | inactive: -0.022 | inactive: -0.041 | inactive: 0.005 | inactive: 0.005 | inactive: -0.06 | inactive: 0.005 | inactive: 0.078 | inactive: -0.014 | inactive: -0.028 | inactive: -0.005 | active: -0.562 | inactive: 0.034 | inactive: -0.022 | inactive: -0.007 |
| NAPA (UniProt P54920) | inactive: 0.016 | inactive: 0.004 | inactive: -0.056 | inactive: 0.011 | inactive: 0.038 | inactive: 0.107 | inactive: 0.024 | inactive: -0.078 | inactive: 0.018 | inactive: 0.037 | inactive: 0.014 | inactive: 0.087 | inactive: -0.003 | inactive: 0.024 | inactive: -0.038 |
| NAXE (UniProt Q8NCW5) | inactive: 0.053 | inactive: -0.007 | inactive: 0.013 | inactive: -0.005 | inactive: -0.011 | inactive: 0.058 | inactive: 0.03 | inactive: -0.012 | inactive: -0.02 | inactive: 0.022 | inactive: -0.069 | inactive: 0.14 | inactive: -0.019 | inactive: 0.011 | inactive: -0.011 |
| NCLN (UniProt Q969V3) | inactive: -0.026 | inactive: -0.013 | inactive: -0.004 | inactive: 0.034 | inactive: 0.035 | inactive: 0.007 | inactive: -0.013 | inactive: 0.025 | inactive: 0.009 | inactive: 0.002 | inactive: -0.004 | inactive: 0.137 | inactive: 0.024 | inactive: -0.009 | inactive: -0.003 |

Exported with bars between the fields: entries from further up.
Target | log2 fold change (nilotinib) | log2 fold change [1] | log2 fold change (dasatinib) | log2 fold change [2] | log2 fold change [3] | log2 fold change (quisinostat) | log2 fold change (tipifarnib) | log2 fold change [4] | log2 fold change [5] | log2 fold change [6] | log2 fold change [7] | log2 fold change (vorinostat) | log2 fold change (silmitasertib) | log2 fold change [8] | log2 fold change (entospletinib)
NAGK isoform 2 (UniProt Q9UJ70) | inactive: -0.004 | inactive: -0.031 | inactive: 0.035 | inactive: -0.03 | inactive: -0.013 | inactive: 0.054 | inactive: 0.001 | inactive: -0.029 | inactive: 0.005 | inactive: 0.016 | inactive: -0.037 | inactive: 0.186 | inactive: -0.016 | inactive: 0.012 | inactive: 0.013
MYSM1 (UniProt Q5VVJ2) | inactive: -0.033 | inactive: 0.075 | inactive: -0.008 | inactive: -0.018 | inactive: -0.02 | inactive: -0.061 | inactive: 0.123 | inactive: 0.008 | inactive: 0 | inactive: 0.007 | inactive: 0.046 | inactive: -0.242 | inactive: 0.014 | inactive: -0.062 | inactive: -0.011
MUCL1 (UniProt Q96DR8) | inactive: 0.652 | inactive: 0.161 | inactive: -0.332 | inactive: 0.274 | inactive: 1.15 | inactive: -0.156 | inactive: -0.29 | inactive: -0.239 | inactive: 0.095 | inactive: 0.04 | inactive: 0.244 | inactive: 0.599 | inactive: -0.233 | inactive: 0.283 | inactive: -0.165
NAA40 (UniProt Q86UY6) | inactive: -0.011 | inactive: 0.006 | inactive: 0.01 | inactive: 0.013 | inactive: 0.085 | inactive: -0.038 | inactive: 0.049 | inactive: 0.094 | inactive: -0.008 | inactive: 0.003 | inactive: -0.087 | inactive: -0.067 | inactive: 0.082 | inactive: 0.045 | inactive: -0.052
NCK1 (UniProt P16333) | inactive: -0.071 | inactive: 0.015 | inactive: -0.005 | inactive: -0.037 | inactive: -0.015 | inactive: -0.053 | inactive: 0.018 | inactive: 0.029 | inactive: 0.001 | inactive: 0.008 | inactive: 0.048 | active: -0.281 | inactive: 0.01 | inactive: -0.014 | inactive: 0.019
